# In the supplement of paper PMC8728848:
# This is one part of the list.
# B1: Endo180d1-D4 (Homo sapiens), Q9UBG0 (protein)
# chain: MGPGRPAPAPWPRHLLRCVLLLGCLHLGRPGAPGDAALPEPNVFLIFSHGLQGCLEAQGGQVRVTPACNTSLPAQRWKWVSRNRLFNLGTMQCLGTGWPGTNTTASLGMYECDREALNLRWHCRTLGDQLSLLLGARTSNISKPGTLERGDQTRSGQWRIYGSEEDLCALPYHEVYTIQGNSHGKPCTIPFKYDNQWFHGCTSTGREDGHLWCATTQDYGKDERWGFCPIKSNDCETFWDKDQLTDSCYQFNFQSTLSWREAWASCEQQGADLLSITEIHEQTYINGLLTGYSSTLWIGLNDLDTSGGWQWSDNSPLKYLNWESDQPDNPSEENCGVIRTESSGGWQNRDCSIALPYVCKKKPNATAEPTPPDRWANVKVECEPSWQPFQGHCYRLQAEKRSWQESKKACLRGGGDLVSIHSMAELEFITKQIKQEVEELWIGLNDLKLQMNFEWSDGSLVSFTHWHPFEPNNFRDSLEDCVTIWGPEGRWNDSPCNQSLPSICKKAGQLSQGAAEEDHGCRKGWTWHSPSCYWLGEDQVTYSEARRLCTDHGSQLVTITNRFEQAFVSSLIYNWEGEYFWTALQDLNSTGSFFWLSGDEVMYTHWNRDQPGYSRGGCVALATGSAMGLWEVKNCTSFRARYICRQSLGTPVTPELPGPDPTPSLTGSCPQGWASDTKLRYCYKVFSSERLQDKKSWVQAQGACQELGAQLLSLASYEEEHFVANMLNKIFGESEPEIHEQHWFWIGLNRRDPRGGQSWRWSDGVGFSYHNFDRSRHDDDDIRGCAVLDLASLQWVAMQCDTQLDWICKIPRGTDVREPDDSPQGRREWLRFQEAEYKFFEHHSTWAQAQRICTWFQAELTSVHSQAELDFLSHNLQKFSRAQEQHWWIGLHTSESDGRFRWTDGSIINFISWAPGKPRPVGKDKKCVYMTASREDWGDQRCLTALPYICKRSNVTKETQPPDLPTTALGGCPSDWIQFLNKCFQVQGQEPQSRVKWSEAQFSCEQQEAQLVTITNPLEQAFITASLPNVTFDLWIGLHASQRDFQWVEQEPLMYANWAPGEPSGPSPAPSGNKPTSCAVVLHSPSAHFTGRWDDRSCTEETHGFICQKGTDPSLSPSPAALPPAPGTELSYLNGTFRLLQKPLRWHDALLLCESHNASLAYVPDPYTQAFLTQAARGLRTPLWIGLAGEEGSRRYSWVSEEPLNYVGWQDGEPQQPGGCTYVDVDGAWRTTSCDTKLQGAVCGVSSGPPPPRRISYHGSCPQGLADSAWIPFREHCYSFHMELLLGHKEARQRCQRAGGAVLSILDEMENVFVWEHLQSYEGQSRGAWLGMNFNPKGGTLVWQDNTAVNYSNWGPPGLGPSMLSHNSCYWIQSNSGLWRPGACTNITMGVVCKLPRAEQSSFSPSALPENPAALVVVLMAVLLLLALLTAALILYRRRQSIERGAFEGARYSRSSSSPTEATEKNILVSDMEMNEQQE
# Experiments:
# Test in all cases: glycan array binding signal (z-score within array); higher = stronger binding
# Conditions in all cases: glycan notation: IUPAC condensed, linker removed
# GlcNAc(b1-3)GalNAc = target: GlcNAc(b1-3)GalNAc
# In short: (§1)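 The binding signal is a Z-score computed within each array. Data were drawn from 3228 arrays in the Consortium for Functional Glycomics database, restricted to those with a known protein sequence. Scores were averaged over arrays of the same protein sequence at different concentrations or buffers, and over linkers, and negative values can be taken as non-binding.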
# GlcNAc(b1-3)Man = target: GlcNAc(b1-3)Man
# In short: as §1
# [1] = target: GlcNAc(b1-3)[GlcNAc(b1-4)][GlcNAc(b1-6)]GlcNAc
# In short: as §1
# [2] = target: GlcNAc(b1-3)[GlcNAc(b1-6)]Gal(b1-4)GlcNAc
# In short: as §1
# [3] = target: GlcNAc(b1-3)[GlcNAc(b1-6)]GalNAc
# In short: as §1
# [4] = target: GlcNAc(b1-3)[GlcNAc(b1-6)]GlcNAc(b1-4)GlcNAc
# In short: as §1
# [5] = target: GlcNAc(b1-4)Gal(b1-4)GlcNAc
# In short: as §1
# GlcNAc(b1-4)GlcNAc = target: GlcNAc(b1-4)GlcNAc
# In short: as §1
# [6] = target: GlcNAc(b1-4)GlcNAc(b1-4)GlcNAc
# In short: as §1
# [7] = target: GlcNAc(b1-4)GlcNAc(b1-4)GlcNAc(b1-4)GlcNAc(b1-4)GlcNAc
# In short: as §1
# [8] = target: GlcNAc(b1-4)GlcNAc(b1-4)GlcNAc(b1-4)GlcNAc(b1-4)GlcNAc(b1-4)GlcNAc
# In short: as §1
# [9] = target: GlcNAc(b1-4)[GlcNAc(b1-6)]GalNAc
# In short: as §1
# [10] = target: GlcNAc(b1-6)Gal(b1-4)GlcNAc
# In short: as §1
# GlcNAc(b1-6)GalNAc = target: GlcNAc(b1-6)GalNAc
# In short: as §1
# [11] = target: GlcNAc6S(b1-3)Gal(b1-4)GlcNAc
# In short: as §1
# Kdn(a2-3)Gal(b1-3)GalNAc = target: Kdn(a2-3)Gal(b1-3)GalNAc
# In short: as §1
# Kdn(a2-3)Gal(b1-3)GlcNAc = target: Kdn(a2-3)Gal(b1-3)GlcNAc
# In short: as §1
# Kdn(a2-3)Gal(b1-4)Glc = target: Kdn(a2-3)Gal(b1-4)Glc
# In short: as §1
# Kdn(a2-3)Gal(b1-4)GlcNAc = target: Kdn(a2-3)Gal(b1-4)GlcNAc
# In short: as §1
# [12] = target: Kdn(a2-3)Gal(b1-4)[Fuc(a1-3)]GlcNAc
# In short: as §1
# Kdn(a2-6)Gal(b1-4)GlcNAc = target: Kdn(a2-6)Gal(b1-4)GlcNAc
# In short: as §1
# [13] = target: Man(a1-2)Man(a1-2)Man(a1-3)Man
# In short: as §1
# [14] = target: Man(a1-2)Man(a1-2)Man(a1-6)[Man(a1-3)]Man
# In short: as §1
# Man(a1-2)Man(a1-3)Man = target: Man(a1-2)Man(a1-3)Man
# In short: as §1
# [15] = target: Man(a1-2)Man(a1-3)[Man(a1-2)Man(a1-6)]Man
# In short: as §1
# [16] = target: Man(a1-2)Man(a1-3)[Man(a1-2)Man(a1-6)]Man(a1-6)[Man(a1-2)Man(a1-2)Man(a1-3)]Man
# In short: as §1
# [17] = target: Man(a1-2)Man(a1-3)[Man(a1-2)Man(a1-6)]Man(a1-6)[Man(a1-2)Man(a1-2)Man(a1-3)]Man(b1-4)GlcNAc(b1-4)GlcNAc
# In short: as §1
# [18] = target: Man(a1-2)Man(a1-3)[Man(a1-6)]Man(a1-6)[Man(a1-2)Man(a1-3)]Man(b1-4)GlcNAc(b1-4)GlcNAc
# In short: as §1
# [19] = target: Man(a1-2)Man(a1-6)[Man(a1-3)]Man(a1-6)[Man(a1-2)Man(a1-2)Man(a1-3)]Man
# In short: as §1
# [20] = target: Man(a1-2)Man(a1-6)[Man(a1-3)]Man(a1-6)[Man(a1-2)Man(a1-2)Man(a1-3)]Man(b1-4)GlcNAc(b1-4)GlcNAc
# In short: as §1
# Man(a1-3)[Man(a1-6)]Man = target: Man(a1-3)[Man(a1-6)]Man
# In short: as §1
# [21] = target: Man(a1-3)[Man(a1-6)]Man(a1-6)[Man(a1-2)Man(a1-3)]Man(b1-4)GlcNAc(b1-4)GlcNAc
# In short: as §1
# [22] = target: Man(a1-3)[Man(a1-6)]Man(a1-6)[Man(a1-3)]Man
# In short: as §1
# [23] = target: Man(a1-3)[Man(a1-6)]Man(a1-6)[Man(a1-3)]Man(b1-4)GlcNAc(b1-4)GlcNAc
# In short: as §1
# [24] = target: Man(a1-3)[Man(a1-6)]Man(b1-4)GlcNAc(b1-4)GlcNAc
# In short: as §1
# [25] = target: Man(a1-3)[Man(a1-6)]Man(b1-4)GlcNAc(b1-4)[Fuc(a1-6)]GlcNAc
# In short: as §1
# Man(a1-6)Man = target: Man(a1-6)Man
# In short: as §1
# Man(b1-4)GlcNAc = target: Man(b1-4)GlcNAc
# In short: as §1
# MurNAc(b1-4)GlcNAc = target: MurNAc(b1-4)GlcNAc
# In short: as §1
# Neu5Ac(a2-3)Gal = target: Neu5Ac(a2-3)Gal
# In short: as §1
# [26] = target: Neu5Ac(a2-3)Gal(b1-3)GalNAc
# In short: as §1
# [27] = target: Neu5Ac(a2-3)Gal(b1-3)GalNAc(b1-3)Gal(a1-4)Gal(b1-4)Glc
# In short: as §1
# [28] = target: Neu5Ac(a2-3)Gal(b1-3)GalNAc(b1-3)Gal(b1-4)GlcNAc
# In short: as §1
# [29] = target: Neu5Ac(a2-3)Gal(b1-3)GalNAc(b1-4)Gal(b1-4)Glc
# In short: as §1
# [30] = target: Neu5Ac(a2-3)Gal(b1-3)GalNAc(b1-4)[Neu5Ac(a2-3)]Gal(b1-4)Glc
# In short: as §1
binder,measurement,setting,value
B1,glycan array binding signal (z-score),GlcNAc(b1-3)GalNAc,-0.261
same,glycan array binding signal (z-score),GlcNAc(b1-3)Man,0.323
same,glycan array binding signal (z-score),[1],-0.344
same,glycan array binding signal (z-score),[2],-0.012
same,glycan array binding signal (z-score),[3],-0.079
same,glycan array binding signal (z-score),[4],-0.108
same,glycan array binding signal (z-score),[5],-0.605
same,glycan array binding signal (z-score),GlcNAc(b1-4)GlcNAc,-0.441
same,glycan array binding signal (z-score),[6],-0.355
same,glycan array binding signal (z-score),[7],-0.159
same,glycan array binding signal (z-score),[8],-0.257
same,glycan array binding signal (z-score),[9],-1.12
same,glycan array binding signal (z-score),[10],0.095
same,glycan array binding signal (z-score),GlcNAc(b1-6)GalNAc,-0.554
same,glycan array binding signal (z-score),[11],-0.181
same,glycan array binding signal (z-score),Kdn(a2-3)Gal(b1-3)GalNAc,0.105
same,glycan array binding signal (z-score),Kdn(a2-3)Gal(b1-3)GlcNAc,0.173
same,glycan array binding signal (z-score),Kdn(a2-3)Gal(b1-4)Glc,-1.02
same,glycan array binding signal (z-score),Kdn(a2-3)Gal(b1-4)GlcNAc,0.45
same,glycan array binding signal (z-score),[12],-2.97
same,glycan array binding signal (z-score),Kdn(a2-6)Gal(b1-4)GlcNAc,0.204
same,glycan array binding signal (z-score),[13],-0.417
same,glycan array binding signal (z-score),[14],-0.05
same,glycan array binding signal (z-score),Man(a1-2)Man(a1-3)Man,-0.067
same,glycan array binding signal (z-score),[15],0.123
same,glycan array binding signal (z-score),[16],0.575
same,glycan array binding signal (z-score),[17],-0.678
same,glycan array binding signal (z-score),[18],-0.036
same,glycan array binding signal (z-score),[19],1.1
same,glycan array binding signal (z-score),[20],-0.491
same,glycan array binding signal (z-score),Man(a1-3)[Man(a1-6)]Man,-0.357
same,glycan array binding signal (z-score),[21],-0.787
same,glycan array binding signal (z-score),[22],0.364
same,glycan array binding signal (z-score),[23],-1.22
same,glycan array binding signal (z-score),[24],-0.209
same,glycan array binding signal (z-score),[25],0.638
same,glycan array binding signal (z-score),Man(a1-6)Man,-0.201
same,glycan array binding signal (z-score),Man(b1-4)GlcNAc,-0.742
same,glycan array binding signal (z-score),MurNAc(b1-4)GlcNAc,-0.451
same,glycan array binding signal (z-score),Neu5Ac(a2-3)Gal,-1.18
same,glycan array binding signal (z-score),[26],0.233
same,glycan array binding signal (z-score),[27],0.142
same,glycan array binding signal (z-score),[28],0.173
same,glycan array binding signal (z-score),[29],-3.76
same,glycan array binding signal (z-score),[30],-0.22

# A portion taken from the entries so far, for reference:
binder,measurement,setting,value
B1,glycan array binding signal (z-score),[18],-0.036
same,glycan array binding signal (z-score),[19],1.1
same,glycan array binding signal (z-score),[20],-0.491
same,glycan array binding signal (z-score),Man(a1-3)[Man(a1-6)]Man,-0.357
same,glycan array binding signal (z-score),[21],-0.787
same,glycan array binding signal (z-score),[22],0.364
same,glycan array binding signal (z-score),[23],-1.22
same,glycan array binding signal (z-score),[24],-0.209
same,glycan array binding signal (z-score),[25],0.638
